From patent US20070032419A1 (ONCOSCIENCE, published 2007)
Results are given in words; binding and its absence hold for the method and conditions named. A result given as binding can be weak or reduced; the word gives no strength. For some of these results: Tags and fused reporters may be left off the sequences shown.

B1: tTF-GNGRAHA fusion polypeptide with N-terminal affinity tag (protein)
chain: HHHHHHSSGLVPRGSGMKETAAAKFERQHMDSPDLGTDDDDKAMGSGTTNTVAAYNLTWKSTNFKTILEWEPKPVNQVYTVQISTKSGDWKSKCFYTTDTECDLTDEIVKDVKQTYLARVFSYPAGNVESTGSAGEPLYENSPEFTPYLETNLGQPTIQSFEQVGTKVNVTVEDERTLVRRNNTFLSLRDVFGKDLIYTLYYWKSSSSGKKTAKTNTNEFLIDVDKGENYCFSVQAVIPSRTVNRKSTDSPVECMGQEKGEFRGNGRAHA

Experiments:
[1] = target: purified integrin αvβ3 (immobilized on microtiter plates); test: ELISA, 0.1 µM protein on immobilized αvβ3, detected with polyclonal anti-human TF antibody
[2] = target: purified integrin αvβ3 (immobilized on microtiter plates); test: ELISA, purified αvβ3 immobilized on microtiter plates
[3] = target: purified integrin αvβ3 (immobilized on microtiter plates); test: competition ELISA on immobilized αvβ3 against 0.1 µM tTF-RGD; peptide at 1-10 µM
[4] = target: purified integrin αvβ3 (immobilized on microtiter plates); test: competition ELISA on immobilized αvβ3 against tTF-RGD

Row | binding [1] | binding [2] | binding [3] | binding [4] | Binder
1 | binds | binds | – | – | B1
2 | – | – | binds | binds | GRGDSP [synthetic peptide GRGDSP]
